This is one part of the list.

This assay has as its target T1, OsSMF1 (Oryza sativa, UniProt Q6ZLB0 1-436).
T1 sequence: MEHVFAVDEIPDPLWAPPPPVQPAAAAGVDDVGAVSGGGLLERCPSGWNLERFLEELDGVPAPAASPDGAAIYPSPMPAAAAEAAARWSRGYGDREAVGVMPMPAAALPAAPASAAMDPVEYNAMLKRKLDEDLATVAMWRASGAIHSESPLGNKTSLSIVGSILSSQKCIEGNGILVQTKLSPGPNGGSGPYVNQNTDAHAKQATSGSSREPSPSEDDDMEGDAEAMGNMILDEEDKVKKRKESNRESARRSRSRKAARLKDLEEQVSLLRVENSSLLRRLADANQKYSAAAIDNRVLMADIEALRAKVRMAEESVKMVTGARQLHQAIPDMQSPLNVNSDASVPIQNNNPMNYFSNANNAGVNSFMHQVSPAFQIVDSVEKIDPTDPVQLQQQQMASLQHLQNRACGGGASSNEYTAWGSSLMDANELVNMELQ
Kind of assay: protein-binding microarray (RPBM); PBS, 2% BSA, 51.3 ng/ul salmon testes DNA, 50 uM zinc acetate, 200 nM TF, 25 C, 1 h; high values mean tight binding. The settings on record: protein: recombinant; tags: N-terminal polyhistidine and DsRed monomer fusion (pET32a); chain copies: 2; label: CyDye5-dUTP incorporated in the synthesized complementary strand; 3' TTTTT single-stranded linker to array surface; dsDNA, one strand shown. The procedure, abridged:
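Ni–NTA purification followed expression in E. coli BL21-CodonPlus of transcription factors fused N-terminally to a polyhistidine tag and DsRed. At 200 nM in PBS with 2% BSA, salmon testes DNA and 50 µM zinc acetate, the protein was incubated for 1 h at 25 °C with a custom Agilent array that had been primer-extended with Cy5-dUTP and blocked with 2% BSA. After washing, the array was read on an Axon 4000B scanner. The binding signal is per-feature fluorescence intensity in arbitrary units.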
With “GCTGCTGATGGTGATGATGACGATGATTAATGGCGGATTACGGAGTCACCTAGTGCAG”, the binding signal was 5810 fluorescence intensity (a.u.).
On to “ACTTAACGTGATGGAATGGCATCCATAATATTCGTCCACCCGGAGTCACCTAGTGCAG”, for which the binding signal is 3140 fluorescence intensity (a.u.).
Next, “AAACATGCCGCCAAATTAAATTCGCCTAAAATACCAATCACGGAGTCACCTAGTGCAG”: 17000 fluorescence intensity (a.u.); “GTCGCGCCTGACGCCGCCGTTGCGCCTGCCACCGCCTGTCCGGAGTCACCTAGTGCAG”: 4410 fluorescence intensity (a.u.); “GATCATTACGTCCAAGTGATTTCATCCTGAAATGACGTCACGGAGTCACCTAGTGCAG”: 5800 fluorescence intensity (a.u.).
Under “GCCCGTTAGAGATGAGAGTCATCCGTGACGTGCTATAATCCGGAGTCACCTAGTGCAG” stands 3540 fluorescence intensity (a.u.); under “ACCTGAAGACACGTGTGGTCTATCTGAGCTTTGTGATCAGCGGAGTCACCTAGTGCAG”, 9840 fluorescence intensity (a.u.).
Under “GGGGAAAGAAAGGGTGTGACGTGGCATCCTGACATGTGGGCGGAGTCACCTAGTGCAG” stands 12600 fluorescence intensity (a.u.).
Take “GCAACGACGGCGGCGGCGGCGAGCTCGATGGGCGATGACGCGGAGTCACCTAGTGCAG”: the binding signal was 3400 fluorescence intensity (a.u.).
Under “AAATCGGCGCATTACTAGCACGGCGCCACGGCCACGCGCACGGAGTCACCTAGTGCAG” stands 3470 fluorescence intensity (a.u.).
Next, “AGGTTAGCAACTATGAATCACAATAAGTTAGAGCACGTACCGGAGTCACCTAGTGCAG”: 3400 fluorescence intensity (a.u.); “GAGTCGCCGCCTTGCGCCCTCGCCAGTCACCCTGCGCGTTCGGAGTCACCTAGTGCAG”: 4680 fluorescence intensity (a.u.); “TGAAAGGTACAGACAGACAGACAAACAGCAGTGGTCGCCACGGAGTCACCTAGTGCAG”: 9780 fluorescence intensity (a.u.).
Next, “AATTGCCAGTTTGCCACGGTGCGCTGAATTACTAGATTCGCGGAGTCACCTAGTGCAG”: 3680 fluorescence intensity (a.u.); “TTCTGTAACATAGGCTAACGTCAACGTGGCATTCATTTTGCGGAGTCACCTAGTGCAG”: 13200 fluorescence intensity (a.u.); “TTTGCCGCATCCCCTCATCTGACACGAAATTTGGTAGAGTCGGAGTCACCTAGTGCAG”: 4120 fluorescence intensity (a.u.).
Consider “TTGAGGAAATAAGAGGAGTGTGACAAAGCATCAGTTGCATCGGAGTCACCTAGTGCAG”, for which the binding signal was 3260 fluorescence intensity (a.u.).
Next, “ACATACGTTTGGATTGCCAACCGTGACAAGCCGATCACTGCGGAGTCACCTAGTGCAG”: 3400 fluorescence intensity (a.u.); “GACACACCGTTTAGTAGTTTGGAAAGCGTGCGTGTGGAAACGGAGTCACCTAGTGCAG”: 26300 fluorescence intensity (a.u.).
Under “GCACTTCGGAAGGCGATTCTGAGGTCGACCTCGGGAAGGTCGGAGTCACCTAGTGCAG” stands 3150 fluorescence intensity (a.u.).
For “TGGACTAGGATGTGTCTCATCTAGTCATAAGTTGTTATATCGGAGTCACCTAGTGCAG”, the binding signal was 4210 fluorescence intensity (a.u.).
Regarding “TACTTCTACCTACCTTACCAAGTCCTGACAGTTACAACGTCGGAGTCACCTAGTGCAG”, the binding signal was 55400 fluorescence intensity (a.u.).
Under “TATGTAGGGAGAGCCCTGACCTGCCATCATCATCAATCATCGGAGTCACCTAGTGCAG” stands 36600 fluorescence intensity (a.u.).
As for “CCCGGGGTGCGCCGGGTCGGCCGCCAGCGCGGCGTCGCAGCGGAGTCACCTAGTGCAG”, the binding signal was 4470 fluorescence intensity (a.u.).
For “ATCGTTCTCGGCGGCGATCACCTTAGTCAGCCTCTGCTTCCGGAGTCACCTAGTGCAG”, the binding signal was 4730 fluorescence intensity (a.u.).
Under “CGATCGATTCGCTCTCTCGCCGCCGCCGCCGCAGCTGACGCGGAGTCACCTAGTGCAG” stands 3190 fluorescence intensity (a.u.); under “CGTATTTGGGATACGTTATTACGTCATCCCTTATTACATCCGGAGTCACCTAGTGCAG”, 9390 fluorescence intensity (a.u.); under “GGATACCTGATATCTGTTGTGGTACTAGCTGCATGGTACCCGGAGTCACCTAGTGCAG”, 3380 fluorescence intensity (a.u.).
Consider “GTGAATCAATTACATGTCCACATGCTCCATACTGGTATCTCGGAGTCACCTAGTGCAG”, for which the binding signal was 15300 fluorescence intensity (a.u.).
Under “CTCCTCCTCTCACCTGACGACCTGACCCTTCTTCTTCCTCCGGAGTCACCTAGTGCAG” stands 3200 fluorescence intensity (a.u.).
Under “GGATCACTACATTCAACAAAATATGTACCGTCATATCCCACGGAGTCACCTAGTGCAG” stands 3530 fluorescence intensity (a.u.); under “ATCTCAATCTCAGGTTTGATGAAAACGACCACGTCATCGGCGGAGTCACCTAGTGCAG”, 21800 fluorescence intensity (a.u.); under “GCGCTGCGCGTCCGCGGCTGACTGCGCTGACGCCCGCGGCCGGAGTCACCTAGTGCAG”, 4730 fluorescence intensity (a.u.).
Next, “TTCTCCGGTGCCATGTGTGCAGCGGCGGCGGCAGCGCGCCCGGAGTCACCTAGTGCAG”: 3610 fluorescence intensity (a.u.); “TGAGGTGAGGTGCGTGGCCCTTGGACTTTCGAGGCGAAACCGGAGTCACCTAGTGCAG”: 3570 fluorescence intensity (a.u.).
As to “CAATCCAGCATCAAAACCGATGGTTTTGGAACACGACGGACGGAGTCACCTAGTGCAG”, the binding signal was 3190 fluorescence intensity (a.u.).
For the sequence “AAGTCGGCGATCGCCGGAGAGGCGGCCGGAGGCGGTGGAGCGGAGTCACCTAGTGCAG”, the binding signal is 3860 fluorescence intensity (a.u.).
Next, “ATTTACAACCAGGTCCTCAACCTCCACGTCGCTCACCGTCCGGAGTCACCTAGTGCAG”: 4880 fluorescence intensity (a.u.); “TAAACTCCCTGCAAACGCTCTCAACCTGTCGCATGCGTGGCGGAGTCACCTAGTGCAG”: 4680 fluorescence intensity (a.u.).
Regarding “TCCTCTTCTCCTCCGCCGCATCAGCAATCTCTCTTTCTACCGGAGTCACCTAGTGCAG”, the binding signal was 4100 fluorescence intensity (a.u.).
Next, “ACAACATTAACACCACTGAGCACACACTGCGCGTAGCAAACGGAGTCACCTAGTGCAG”: 23300 fluorescence intensity (a.u.); “TTCTTCCTATATAAGCACAACACACGTCCTTACTTGTGTGCGGAGTCACCTAGTGCAG”: 5410 fluorescence intensity (a.u.).

The values are drawn from publication PMC7819943, “Rice protein-binding microarrays: a tool to detect cis-acting elements near promoter regions in rice”.
